Among the data in patent US20200030262A1, “THERAPEUTIC SIGMA 1 RECEPTOR AGONISTS FOR TREATING LONG QT SYNDROME TYPE 1, TYPE 2, TYPE 6, TYPE 8 AND RELATED CHANNELOPATHIES” (priority 2017, published 2020) are binding values, retold here.

No constants are given. Whether binding was seen depends on the method and setting. Binding seen in cells or lysates may run through a third protein. Some entries that bind do so weakly or less than the wild type.

In experiment [1] the target is T1, Sigma-1R (Homo sapiens, UniProt Q99720). As to the kind of experiment: endogenous co-immunoprecipitation (CDK5 IP, western blot for sigma 1 receptor). (In general: A western blot detects proteins with antibodies after separation by electrophoresis.)
Experiment [2] concerns the target T1, Sigma-1R. As to the kind of experiment: co-immunoprecipitation: cardiomyocyte lysates on CDK5 antibody-conjugated beads, then western blot.

Regarding “cyclin-dependent kinase 5 (cdk5) (from UniProt Q00535 1-292) (enzyme)”, the binding entry with Sigma-1R [1] and with Sigma-1R [2] was “binds” in each case.
